Reference: doi:10.1101/2023.10.17.562760
These are yes or no findings as the source states them, for the method shown. Some results given as binding are weak or reduced against the parent protein; the word gives no strength.

By UniProt entry, the sequences of proteins in these tests, tags left out.
UniProt P28738, whole entry: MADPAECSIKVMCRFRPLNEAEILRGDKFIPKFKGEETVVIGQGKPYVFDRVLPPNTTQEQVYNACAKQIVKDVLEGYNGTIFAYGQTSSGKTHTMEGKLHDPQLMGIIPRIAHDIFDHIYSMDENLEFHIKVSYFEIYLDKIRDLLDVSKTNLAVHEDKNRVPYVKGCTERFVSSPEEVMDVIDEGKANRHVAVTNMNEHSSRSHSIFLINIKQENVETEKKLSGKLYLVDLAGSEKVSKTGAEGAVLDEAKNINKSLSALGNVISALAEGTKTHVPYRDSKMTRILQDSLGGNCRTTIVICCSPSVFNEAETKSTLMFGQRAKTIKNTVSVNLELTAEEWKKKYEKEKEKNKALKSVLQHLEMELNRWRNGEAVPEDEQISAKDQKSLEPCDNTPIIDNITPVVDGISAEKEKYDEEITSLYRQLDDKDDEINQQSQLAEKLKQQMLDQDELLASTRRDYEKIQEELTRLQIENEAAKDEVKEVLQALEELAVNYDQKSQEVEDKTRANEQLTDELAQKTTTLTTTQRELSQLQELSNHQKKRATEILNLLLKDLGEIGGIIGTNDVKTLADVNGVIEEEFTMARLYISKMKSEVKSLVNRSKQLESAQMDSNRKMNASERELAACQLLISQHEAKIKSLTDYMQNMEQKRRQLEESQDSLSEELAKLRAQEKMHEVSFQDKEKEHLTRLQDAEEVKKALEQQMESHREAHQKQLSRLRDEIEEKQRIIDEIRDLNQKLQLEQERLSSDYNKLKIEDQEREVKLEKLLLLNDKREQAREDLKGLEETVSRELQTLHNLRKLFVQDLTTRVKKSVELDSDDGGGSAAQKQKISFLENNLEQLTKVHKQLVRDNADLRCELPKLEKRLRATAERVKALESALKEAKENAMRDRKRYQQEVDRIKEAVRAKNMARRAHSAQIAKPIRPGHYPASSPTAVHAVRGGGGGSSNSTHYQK
UniProt O88447, whole entry: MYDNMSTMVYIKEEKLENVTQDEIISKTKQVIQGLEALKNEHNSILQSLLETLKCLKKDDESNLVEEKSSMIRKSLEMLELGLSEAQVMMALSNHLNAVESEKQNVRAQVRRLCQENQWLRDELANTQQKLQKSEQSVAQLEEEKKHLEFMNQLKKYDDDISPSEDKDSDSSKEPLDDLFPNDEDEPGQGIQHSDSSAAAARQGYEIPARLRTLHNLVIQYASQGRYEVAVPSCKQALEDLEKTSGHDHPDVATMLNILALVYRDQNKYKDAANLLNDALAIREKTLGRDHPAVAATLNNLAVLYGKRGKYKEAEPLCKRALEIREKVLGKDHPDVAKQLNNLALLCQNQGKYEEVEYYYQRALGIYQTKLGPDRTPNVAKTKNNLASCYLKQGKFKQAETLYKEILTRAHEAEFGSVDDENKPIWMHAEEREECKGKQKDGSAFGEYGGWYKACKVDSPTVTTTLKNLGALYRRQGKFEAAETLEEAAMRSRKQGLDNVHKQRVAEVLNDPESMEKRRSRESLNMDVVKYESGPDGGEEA

Molecular target: His-Kif5C (kinesin heavy chain, KHC), wild type, of Kinesin^WT (UniProt P28738)
Assay: SEC

Substance	binding
His-Kif5C (kinesin heavy chain, KHC), wild type, of Kinesin^WT (from UniProt P28738 1-956)	binds
KLC1 isoform A (kinesin light chain, KLC) (from UniProt O88447 1-541)	binds
